This passage reports binding results from PMC6886185.

Amino acid sequences for entries named in this document (tags omitted).
UniProt Q14240: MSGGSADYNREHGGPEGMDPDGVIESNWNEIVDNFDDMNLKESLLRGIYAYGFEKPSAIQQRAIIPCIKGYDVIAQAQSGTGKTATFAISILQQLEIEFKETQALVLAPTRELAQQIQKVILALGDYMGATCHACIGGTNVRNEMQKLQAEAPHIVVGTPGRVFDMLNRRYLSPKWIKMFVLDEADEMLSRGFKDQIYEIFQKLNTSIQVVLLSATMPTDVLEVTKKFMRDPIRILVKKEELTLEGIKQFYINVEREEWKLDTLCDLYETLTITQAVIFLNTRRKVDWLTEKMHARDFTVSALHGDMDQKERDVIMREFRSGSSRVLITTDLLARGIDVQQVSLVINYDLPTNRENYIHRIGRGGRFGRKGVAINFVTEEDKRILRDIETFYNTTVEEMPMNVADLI
UniProt A5YKK6: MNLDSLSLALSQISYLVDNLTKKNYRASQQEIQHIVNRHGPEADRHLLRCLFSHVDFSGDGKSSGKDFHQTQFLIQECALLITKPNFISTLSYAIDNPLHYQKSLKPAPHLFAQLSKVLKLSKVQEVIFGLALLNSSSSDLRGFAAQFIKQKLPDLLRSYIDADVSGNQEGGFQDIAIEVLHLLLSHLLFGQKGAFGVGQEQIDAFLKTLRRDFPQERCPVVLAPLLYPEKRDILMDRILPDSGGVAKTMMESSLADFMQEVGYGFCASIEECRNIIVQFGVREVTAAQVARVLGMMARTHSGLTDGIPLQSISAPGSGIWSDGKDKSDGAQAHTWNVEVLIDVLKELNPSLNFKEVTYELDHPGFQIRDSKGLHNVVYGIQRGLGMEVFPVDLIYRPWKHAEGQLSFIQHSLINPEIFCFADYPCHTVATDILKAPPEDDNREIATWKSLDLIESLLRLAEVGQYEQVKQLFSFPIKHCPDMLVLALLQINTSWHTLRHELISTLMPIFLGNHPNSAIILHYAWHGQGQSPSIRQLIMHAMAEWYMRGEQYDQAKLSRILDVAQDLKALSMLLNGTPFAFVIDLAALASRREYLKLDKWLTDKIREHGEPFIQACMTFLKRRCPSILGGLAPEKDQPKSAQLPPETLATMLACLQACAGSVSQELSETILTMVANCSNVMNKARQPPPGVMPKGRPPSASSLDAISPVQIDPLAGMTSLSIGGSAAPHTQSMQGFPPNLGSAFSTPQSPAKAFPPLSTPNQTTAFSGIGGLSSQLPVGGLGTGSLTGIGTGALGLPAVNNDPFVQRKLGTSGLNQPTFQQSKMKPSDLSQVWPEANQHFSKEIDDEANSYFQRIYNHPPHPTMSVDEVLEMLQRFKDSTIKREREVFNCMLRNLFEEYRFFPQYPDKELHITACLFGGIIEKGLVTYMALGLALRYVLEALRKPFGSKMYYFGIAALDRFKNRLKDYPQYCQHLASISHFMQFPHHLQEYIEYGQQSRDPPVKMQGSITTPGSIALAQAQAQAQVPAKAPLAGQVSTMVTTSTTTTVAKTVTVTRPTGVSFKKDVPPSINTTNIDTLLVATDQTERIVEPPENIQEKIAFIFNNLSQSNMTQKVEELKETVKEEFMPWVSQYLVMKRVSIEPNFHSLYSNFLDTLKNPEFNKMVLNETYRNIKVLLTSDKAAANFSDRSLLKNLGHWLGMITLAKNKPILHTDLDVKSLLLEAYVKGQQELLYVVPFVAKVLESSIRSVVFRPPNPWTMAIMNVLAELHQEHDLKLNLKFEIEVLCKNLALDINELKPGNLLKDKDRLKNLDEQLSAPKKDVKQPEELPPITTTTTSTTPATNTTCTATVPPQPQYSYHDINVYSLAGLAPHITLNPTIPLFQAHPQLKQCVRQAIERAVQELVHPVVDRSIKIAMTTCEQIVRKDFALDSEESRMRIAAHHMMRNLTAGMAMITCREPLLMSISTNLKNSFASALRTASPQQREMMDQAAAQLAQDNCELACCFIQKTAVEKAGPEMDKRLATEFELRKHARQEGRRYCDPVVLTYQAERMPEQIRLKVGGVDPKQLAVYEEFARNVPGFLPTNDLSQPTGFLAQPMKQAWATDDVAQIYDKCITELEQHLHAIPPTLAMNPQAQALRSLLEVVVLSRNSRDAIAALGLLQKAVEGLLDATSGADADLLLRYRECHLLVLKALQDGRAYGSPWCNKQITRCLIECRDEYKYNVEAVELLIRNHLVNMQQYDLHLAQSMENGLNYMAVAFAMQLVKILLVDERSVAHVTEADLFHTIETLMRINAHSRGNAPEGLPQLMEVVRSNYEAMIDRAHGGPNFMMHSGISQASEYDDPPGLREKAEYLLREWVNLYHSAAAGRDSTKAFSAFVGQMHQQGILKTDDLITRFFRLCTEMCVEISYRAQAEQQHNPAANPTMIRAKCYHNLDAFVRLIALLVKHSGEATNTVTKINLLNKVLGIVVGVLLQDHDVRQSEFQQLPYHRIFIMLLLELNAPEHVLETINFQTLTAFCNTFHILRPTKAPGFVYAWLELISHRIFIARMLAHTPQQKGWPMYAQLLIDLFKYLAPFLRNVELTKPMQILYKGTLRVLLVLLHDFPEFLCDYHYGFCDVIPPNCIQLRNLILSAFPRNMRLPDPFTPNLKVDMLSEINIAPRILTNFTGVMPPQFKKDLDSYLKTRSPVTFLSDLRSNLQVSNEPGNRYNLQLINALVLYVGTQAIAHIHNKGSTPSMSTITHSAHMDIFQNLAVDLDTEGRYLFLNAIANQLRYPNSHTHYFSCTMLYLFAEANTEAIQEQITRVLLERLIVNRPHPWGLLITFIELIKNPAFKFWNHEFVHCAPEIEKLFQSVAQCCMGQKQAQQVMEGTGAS
UniProt Q9UIV1: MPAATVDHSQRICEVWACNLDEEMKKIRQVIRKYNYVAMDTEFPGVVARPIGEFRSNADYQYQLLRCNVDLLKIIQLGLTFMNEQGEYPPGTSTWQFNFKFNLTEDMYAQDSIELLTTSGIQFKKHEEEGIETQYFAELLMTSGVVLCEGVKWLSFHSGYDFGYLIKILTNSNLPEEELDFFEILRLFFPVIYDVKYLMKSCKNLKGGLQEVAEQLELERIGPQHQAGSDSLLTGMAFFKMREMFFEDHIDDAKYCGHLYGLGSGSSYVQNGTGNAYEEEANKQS
UniProt Q9C0C2: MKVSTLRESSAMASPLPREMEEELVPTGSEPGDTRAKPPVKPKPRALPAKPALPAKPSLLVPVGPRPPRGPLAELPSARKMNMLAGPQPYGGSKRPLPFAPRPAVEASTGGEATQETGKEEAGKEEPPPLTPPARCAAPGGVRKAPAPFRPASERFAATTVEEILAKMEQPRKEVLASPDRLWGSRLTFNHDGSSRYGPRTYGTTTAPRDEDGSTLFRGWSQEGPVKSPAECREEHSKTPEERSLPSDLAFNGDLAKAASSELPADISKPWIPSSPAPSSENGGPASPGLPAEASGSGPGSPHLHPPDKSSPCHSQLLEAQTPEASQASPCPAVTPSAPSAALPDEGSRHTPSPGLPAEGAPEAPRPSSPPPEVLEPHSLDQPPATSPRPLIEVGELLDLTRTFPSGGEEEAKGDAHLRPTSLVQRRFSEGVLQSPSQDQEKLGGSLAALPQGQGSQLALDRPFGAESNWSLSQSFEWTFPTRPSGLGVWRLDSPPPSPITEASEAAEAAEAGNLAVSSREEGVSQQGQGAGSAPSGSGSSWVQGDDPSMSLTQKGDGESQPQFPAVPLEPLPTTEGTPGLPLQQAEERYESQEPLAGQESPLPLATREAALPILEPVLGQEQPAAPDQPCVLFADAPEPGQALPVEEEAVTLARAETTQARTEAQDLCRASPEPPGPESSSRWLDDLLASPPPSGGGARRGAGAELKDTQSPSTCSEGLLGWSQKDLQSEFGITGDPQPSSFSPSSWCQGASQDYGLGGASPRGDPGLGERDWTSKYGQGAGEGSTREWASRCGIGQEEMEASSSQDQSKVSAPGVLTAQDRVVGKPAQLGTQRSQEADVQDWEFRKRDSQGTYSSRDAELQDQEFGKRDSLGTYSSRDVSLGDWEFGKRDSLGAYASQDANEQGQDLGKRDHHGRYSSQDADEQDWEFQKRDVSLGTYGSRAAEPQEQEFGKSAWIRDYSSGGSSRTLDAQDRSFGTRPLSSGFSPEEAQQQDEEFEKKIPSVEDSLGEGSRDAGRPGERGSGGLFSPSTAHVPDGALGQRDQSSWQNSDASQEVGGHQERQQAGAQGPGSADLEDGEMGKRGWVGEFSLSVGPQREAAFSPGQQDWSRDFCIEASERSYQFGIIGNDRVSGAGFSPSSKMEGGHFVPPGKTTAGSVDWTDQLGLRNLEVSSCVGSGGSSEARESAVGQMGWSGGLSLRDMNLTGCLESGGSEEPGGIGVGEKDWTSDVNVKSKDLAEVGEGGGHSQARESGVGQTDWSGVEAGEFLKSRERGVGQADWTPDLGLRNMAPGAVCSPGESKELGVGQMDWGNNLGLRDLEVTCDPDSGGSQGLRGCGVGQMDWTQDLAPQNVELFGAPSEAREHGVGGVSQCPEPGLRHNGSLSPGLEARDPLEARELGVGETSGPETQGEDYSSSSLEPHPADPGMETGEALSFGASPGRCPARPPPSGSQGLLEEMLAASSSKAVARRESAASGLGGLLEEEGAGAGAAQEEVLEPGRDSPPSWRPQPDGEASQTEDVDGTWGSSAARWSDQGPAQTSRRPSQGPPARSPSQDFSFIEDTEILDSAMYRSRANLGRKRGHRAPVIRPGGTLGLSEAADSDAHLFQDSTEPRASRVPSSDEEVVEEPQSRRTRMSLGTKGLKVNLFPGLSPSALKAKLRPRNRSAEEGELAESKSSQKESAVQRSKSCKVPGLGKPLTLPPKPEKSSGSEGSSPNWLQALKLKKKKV
UniProt Q13049: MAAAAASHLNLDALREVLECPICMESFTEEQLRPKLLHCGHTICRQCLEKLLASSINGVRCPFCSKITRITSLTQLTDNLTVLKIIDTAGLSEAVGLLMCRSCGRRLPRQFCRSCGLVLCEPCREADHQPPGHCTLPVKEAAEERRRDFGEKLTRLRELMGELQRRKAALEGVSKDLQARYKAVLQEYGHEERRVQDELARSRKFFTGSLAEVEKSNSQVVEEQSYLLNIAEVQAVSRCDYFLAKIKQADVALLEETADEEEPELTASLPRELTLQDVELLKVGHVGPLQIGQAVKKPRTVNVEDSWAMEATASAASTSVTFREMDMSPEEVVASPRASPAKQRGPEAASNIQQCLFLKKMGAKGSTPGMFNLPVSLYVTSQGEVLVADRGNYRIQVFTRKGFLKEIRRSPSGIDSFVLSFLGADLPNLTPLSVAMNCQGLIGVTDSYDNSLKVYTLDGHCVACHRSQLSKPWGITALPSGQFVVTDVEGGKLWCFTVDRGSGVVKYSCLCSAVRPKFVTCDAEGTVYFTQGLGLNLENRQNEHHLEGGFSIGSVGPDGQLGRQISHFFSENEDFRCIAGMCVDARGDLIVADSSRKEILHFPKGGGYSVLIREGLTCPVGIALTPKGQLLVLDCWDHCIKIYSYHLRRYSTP

No constants are given. Whether binding was seen depends on the method and setting. In cells and extracts the contact can be indirect. Here binding means that the protein was enriched with, or labelled near, the bait; the list need not be complete.

For the assay, the target named is eIF4A2 (endogenous) (human (endogenous in HeLa)) (UniProt Q14240). Nature of the assay: affinity purification with mass spectrometry; IP of endogenous eIF4A2 (and eIF4A1, rabbit IgG) from precleared HeLa cytoplasmic lysate; 20 mM Tris-HCl pH 7.5, 200 mM NaCl, 2.5 mM MgCl2, 0.5% Triton X-100, 4C; protein G Dynabeads; LC-MS/MS, emPAI.
CNOT1 (from UniProt A5YKK6 1-2376): the binding result is listed as “binds”. Turning to CNOT7 (from UniProt Q9UIV1 1-285), the binding entry is given as “binds”. With TNKS1BP1 (from UniProt Q9C0C2 1-1729) the entry was “binds”; with TRIM32 (from UniProt Q13049 1-653), “binds”.
